Measurements from the supplement of paper PMC10849652.
This is one part of the list.

What was measured:
Test in all cases: log2 fold change, soluble protein after heating vs DMSO (PISA); higher = thermal stabilisation; K562 cells, 10 uM, 30 min; active = over 0.2 and 3.5 SD of the protein, either way, in both replicates (recomputed)
[1] = compound: C1=CC=C(C=C1)[C@H](COC2=CC3=C(C=C2)NC(=O)N3)NC(=O)C4=CC=CN(C4=O)CC5=CC(=C(C=C5)F)F
How it was run: (§1)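 Quantification of soluble protein used TMTpro 16plex LC-MS/MS, with channel sums equalised. Samples were the supernatant after 21,000xg for 90 min of pooled aliquots from K562 cells (2×10^6 cells/mL) treated with 10 μM compound for 30 min, heated for 3 min over 48°C-58°C, and extracted in PBS with 0.5% NP-40 at 4°C. Values, from duplicates, describe thermal stability against control samples on a log2 fold-change scale.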

[2] = compound: CC1=C(SC2=C1C(=N[C@H](C3=NN=C(N32)C)CC(=O)N)C4=CC=C(C=C4)Cl)C
How it was run: as §1

[3] = compound: CC1=C2C(=CC=C1)N=C(N(C2=O)C3=CC=CC=C3C)CN4C=NC5=C(N=CN=C54)N
How it was run: as §1

[4] = compound: Cc1sc2c(c1C)C(c1ccc(Cl)cc1)=N[C@@H](CC(=O)OC(C)(C)C)c1nnc(C)n1-2
How it was run: as §1

[5] = compound: c1ccc([C@@H]2C[C@H]2NC2CCNCC2)cc1
How it was run: as §1

Measured: log2 fold change

PRDX6 (UniProt P30041)
inactive: [1] -0.011 | [2] 0.076 | [3] 0.063 | [4] 0.006 | [5] -0.004

PRPS1 (UniProt P60891)
inactive: [1] 0.05 | [2] -0.012 | [3] -0.011 | [4] -0.037 | [5] 0.026

PRKAG1 isoform 3 (UniProt P54619)
inactive: [1] -0.008 | [2] 0.067 | [3] 0.019 | [4] -0.011 | [5] -0.017

PRMT7 (UniProt Q9NVM4)
inactive: [1] -0.051 | [2] 0.015 | [3] 0.056 | [4] 0.009 | [5] -0.027

PPP4R3B (UniProt Q5MIZ7)
inactive: [1] -0.014 | [2] 0.069 | [3] 0.134 | [4] 0.003 | [5] -0.005

PPM1B isoform 2 (UniProt O75688)
inactive: [1] -0.02

PRKX (UniProt P51817)
active: [1] -0.754

PPP4R3A (UniProt Q6IN85)
inactive: [1] 0.01 | [2] 0.039 | [3] 0.059 | [4] 0.02 | [5] 0.028

PPP3CC isoform 3 (UniProt P48454)
inactive: [1] 0.015 | [2] 0.031 | [3] 0.076 | [4] 0.003 | [5] -0.011

PPP2R5A (UniProt Q15172)
inactive: [1] -0.036 | [2] 0.07 | [3] -0.006 | [4] -0.08 | [5] -0.08

PPP6R1 (UniProt Q9UPN7)
inactive: [1] -0.011 | [2] 0.002 | [3] 0.108 | [4] 0.005 | [5] 0.001

PRKAB1 (UniProt Q9Y478)
inactive: [1] 0.011 | [2] 0.037 | [3] -0.024 | [4] -0.093 | [5] -0.037

Random excerpt: 2 records from the list
PPP6R1 (UniProt Q9UPN7)
inactive: [1] -0.011 | [2] 0.002 | [3] 0.108 | [4] 0.005 | [5] 0.001

PPP4R3A (UniProt Q6IN85)
inactive: [1] 0.01 | [2] 0.039 | [3] 0.059 | [4] 0.02 | [5] 0.028

More records.

PPP2R5C isoform 2 (UniProt Q13362)
inactive: [1] -0.065

PPP1R14B (UniProt Q96C90)
inactive: [1] -0.212 | [2] 0.086 | [3] -0.051 | [4] -0.111 | [5] -0.34

PRF1 (UniProt P14222)
inactive: [1] -0.058

PROSER2 (UniProt Q86WR7)
inactive: [1] 0.012 | [2] 0.006 | [3] -0.015 | [4] -0.051 | [5] 0.029

PRPF38A (UniProt Q8NAV1)
inactive: [1] 0.014 | [2] -0.011 | [3] 0.024 | [4] 0.007 | [5] 0.015

PPP1R12B isoform 6 (UniProt O60237)
inactive: [1] -0.051

PRKD2 (UniProt M0R346)
inactive: [1] 0.081

PPP1CC (UniProt F8W1A0)
inactive: [1] 0.046

PRG4 (UniProt Q92954)
inactive: [1] 0.007 | [2] -0.044 | [3] -0.15 | [4] -0.309 | [5] -0.033

PRKAR2B (UniProt P31323)
inactive: [1] -0.065 | [2] -0.012 | [3] -0.06 | [4] -0.024 | [5] 0.007

PPP1R9B (UniProt Q96SB3)
inactive: [1] 0.244 | [2] -0.213 | [3] -0.051 | [4] 0.039 | [5] 0.044

PPP6R2 isoform 5 (UniProt O75170)
inactive: [1] -0.017 | [2] 0.012 | [3] -0.006 | [4] -0.022 | [5] -0.004

PRKCB isoform 2 (UniProt P05771)
inactive: [1] -0.034 | [2] 0.028 | [3] 0.053 | [4] 0.027 | [5] -0.008

PRNP (UniProt P04156)
inactive: [1] 0.043

PRKCG (UniProt P05129)
inactive: [1] -0.216 | [2] -0.025 | [3] 0.033 | [4] -0.017 | [5] 0.077

PPWD1 (UniProt Q96BP3)
inactive: [1] -0.028 | [2] 0.099 | [3] 0.071 | [4] 0.015 | [5] 0

PPM1B (UniProt O75688)
inactive: [1] -0.05 | [2] 0.02 | [3] 0.044 | [4] 0.015 | [5] -0.05
